Test results as given in patent publication US20110143960A1, “3D-MODELS FOR HIGH-THROUGHPUT SCREENING DRUG DISCOVERY AND DEVELOPMENT” (priority 2009, published 2011).

Tested on: MDA-MB-231 spheroids
Assay: Modified Boyden chamber cell invasion assay of cells dissociated from spheroids
Format: cell-based
Settings: control modulators, 72 h treatment, 24 h invasion, FIG. 6
Protocol: Secondary assay development: As a secondary assay to confirm hits from the primary assay, the Boyden chamber cell invasion method was used and modified to measure the invasive potential of cells isolated from spheroids after treatment with control modulators of EMT. Spheroids were treated as in the primary assay. Following treatment, each sample group was disassociated into single cell suspensions and seeded into invasion chambers followed by a 24 h incubation period. VimPro-Fluc-MDA-MB-231 spheroids were treated with control EMT modulators as described using 15 spheroids per sample group. The spheroids for each sample group were pooled into 1.5 ml, micro tubes and collected by centrifugation at 10,000 rpm for 10 min at room temperature.
Each sample group was then treated with 200 μL of spheroid dissociation solution (0.25% trypsin-EDTA) and incubated at 37° C. for 30 min. […]
FBS in RPMI-1640 medium, 150 μL) was added to each bottom chamber and the plate was incubated (37° C., 5% CO2) for 24 h. […] Invading cells were quantified using five random fields per filter insert in triplicate at 20× magnification using a fluorescent microscope equipped with metamorph image analysis and quantification software (Molecular Devices; Downingtown, Pa.). […]

Row | Compound | inhibition of invasive potential vs untreated spheroids
1 | CO[C@@H]1[C@H](N(C)C(=O)c2ccccc2)C[C@H]2O[C@]1(C)n1c3ccccc3c3c4c(c5c6ccccc6n2c5c31)C(=O)NC4 [PKC412] | about 90%
2 | CNC(=O)c1ccccc1Sc1ccc2c(/C=C/c3ccccn3)n[nH]c2c1 [Axitinib] | about 90%
